Earlier results as cited in patent US20220265619A1, “COMBINATION TREATMENT OF LIVER DISEASES USING FXR AGONISTS” (Novartis AG, priority 2019, published 2022).
For at least one compound, name, drawing or mass did not settle the structure.

Settings: NASH patients; cited from earlier work

Structure (SMILES): CC[C@H]1[C@@H](O)[C@@H]2[C@H](CC[C@]3(C)[C@@H]([C@H](C)CCC(=O)O)CC[C@@H]23)[C@@]2(C)CC[C@@H](O)C[C@@H]12 [obeticholic acid, 6α-ethyl-chenodeoxycholic acid]
- NAS (NAFLD Activity Score): significant improvement in NAS
